Laboratory results: PubChem BioAssay AID743454 (Peter MacCallum Cancer Centre, 2014)
Here is a random part of about 18,000 reagents. Of all reagents, 450 (2.5%) were called active. 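Single biological run; no consistent viability z cut-off exists, so the class columns, not z-scores, define the calls.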

- Screen: 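Search for knock-downs that restore vorinostat killing in resistant colon cancer cells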 (primary screen)
- Cell system: human HCT116-VR colon cancer cells, selected for vorinostat resistance
- Reagents: siRNA pool against human genes, 40 nM siRNA pool
- Timing: vorinostat for 24 h, read-out about 72 h after transfection
- Conditions: vorinostat at 2.5 µM final
- Read-out: 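Two measures, CellTiter-Fluor viability and luminescent caspase 3/7 activity, each as fold change against same-plate mock wells, mean of duplicates, then screen-wide robust z-score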
- Direction: viability robust z-score: higher = more viable cells than screen typical; caspase robust z-score: higher = more caspase 3/7 activity than screen typical
- Call rule: 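a knock-down is a hit when classed RV1 or RV2 for lowered viability, or CA1 or CA2 for caspase activation; those lethal without drug were dropped; hits were retested singly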

no.	gene	viability hit class	caspase hit class	viability robust z-score	caspase robust z-score	call
1	POLR2K	no change	CA2 (caspase activation)	-2.54	6.07	active
2	MAP7D1	no change	no change	0.23	-0.62	inactive
3	PTCHD4	no change	no change	0.18	2.19	inactive
4	FIP1L1	no change	no change	-2.04	1.66	inactive
5	PCDHB1	no change	no change	0.88	-0.57	inactive
6	ZBED3	no change	no change	-1.04	-0.42	inactive
7	HLA-K	no change	no change	-2.34	3.08	inactive
8	ADAMTS16	no change	no change	1.1	0.14	inactive
9	APPBP2	no change	no change	0.02	-0.44	inactive
10	STEAP1	no change	no change	0.74	-0.68	inactive
11	RHPN1	no change	no change	1.14	-0.98	inactive
12	PSG1	no change	no change	2.93	-0.14	inactive
13	CAMSAP2	no change	no change	0.02	-0.66	inactive
14	ARRDC1	no change	no change	-0.58	-0.32	inactive
15	ACTC1	no change	no change	-0.12	-0.74	inactive
16	SPMIP3	no change	no change	-2.38	-0.12	inactive
17	ING5	no change	no change	-0.46	0.06	inactive
18	KLRA1P	no change	no change	0.16	-0.48	inactive
19	GALNT16	no change	no change	-0.62	1.29	inactive
20	LRRN4CL	no change	no change	0.92	-0.54	inactive
21	CCDC186	no change	no change	0.34	0.01	inactive
22	GPD2	no change	no change	0.3	1.48	inactive
23	EIF3I	RV2 (reduced viability)	no change	-3.29	-0.86	active
24	NOTCH1	no change	no change	0.8	0.46	inactive
25	B4GALT1	no change	no change	0.22	0.35	inactive
26	OR8U1	no change	no change	-0.25	0.22	inactive
27	PELP1	no change	no change	-0.5	0.48	inactive
28	PSKH1	no change	no change	0.38	-0.64	inactive
29	BATF2	no change	no change	-3.19	0.09	inactive
30	DEFB114	no change	no change	0.62	-0.09	inactive
31	SIGLECL1	no change	no change	2.33	0.8	inactive
32	FFAR2	no change	no change	0.91	0	inactive
33	WDR38	no change	no change	0.3	0.02	inactive
34	THAP1	no change	CA1 (caspase activation)	-0.18	5.46	active
35	RANBP3	no change	no change	0.88	0.11	inactive
36	MRPL52	no change	no change	0.92	-0.38	inactive
37	RASEF	no change	no change	0.1	-0.64	inactive
38	MLPH	no change	no change	-0.42	0.36	inactive
39	CCNB1IP1	no change	no change	1.04	-0.28	inactive
40	LRR1	no change	no change	0.66	2.21	inactive
41	ZFP28	no change	no change	-1.1	-0.63	inactive
42	TMEM59	no change	no change	0.2	-0.3	inactive
43	UBTD2	no change	no change	-1.27	2.24	inactive
44	MAGEA9B	no change	no change	0.54	-0.96	inactive
45	PEX1	no change	no change	0.87	-0.27	inactive
46	ATP2A2	no change	no change	1	-0.95	inactive
47	DIXDC1	no change	no change	-0.32	-0.26	inactive
48	LBHD1	no change	CA2 (caspase activation)	-0.76	5.64	active
49	CLCNKA	no change	no change	0.32	-0.67	inactive
50	H4C3	no change	no change	-0.97	1.44	inactive
51	THOC3	no change	no change	-0.42	0.86	inactive
52	INTS1	no change	no change	-1.14	2.5	inactive
53	AADAT	no change	no change	1.09	-0.16	inactive
54	LIAT1	no change	no change	0.34	0.7	inactive
55	AKR1B15	no change	no change	0.74	-1.2	inactive
56	PPP2R1B	no change	no change	-0.42	-0.06	inactive
57	PDE1C	no change	no change	0.57	-0.58	inactive
58	SLC14A2	no change	no change	0.37	-0.84	inactive
59	PML	no change	no change	-0.21	-0.37	inactive
60	CLYBL	no change	no change	0.23	-0.19	inactive
61	RBM22	no change	no change	-0.9	3	inactive
62	H2BC10	no change	no change	0.73	4.62	inactive
63	RAD17	no change	no change	1.08	-0.45	inactive
64	DNAJC11	no change	no change	-1.62	-0.08	inactive
65	TGM1	no change	no change	-0.09	3.25	inactive
66	NDUFA13	no change	no change	0.56	0	inactive
67	QSOX2	no change	no change	0.5	-1	inactive
68	KRT78	no change	no change	0.98	1.41	inactive
69	ZNF652	no change	no change	1.5	-0.53	inactive
70	OXER1	no change	no change	1.25	-0.66	inactive
71	INHBB	no change	no change	1.06	0.2	inactive
72	MPP4	no change	no change	-0.82	0.06	inactive
73	MOGAT1	no change	no change	0.94	4.26	inactive

10 successive entries already listed, for reference:
no.	gene	viability hit class	caspase hit class	viability robust z-score	caspase robust z-score	call
55	AKR1B15	no change	no change	0.74	-1.2	inactive
56	PPP2R1B	no change	no change	-0.42	-0.06	inactive
57	PDE1C	no change	no change	0.57	-0.58	inactive
58	SLC14A2	no change	no change	0.37	-0.84	inactive
59	PML	no change	no change	-0.21	-0.37	inactive
60	CLYBL	no change	no change	0.23	-0.19	inactive
61	RBM22	no change	no change	-0.9	3	inactive
62	H2BC10	no change	no change	0.73	4.62	inactive
63	RAD17	no change	no change	1.08	-0.45	inactive
64	DNAJC11	no change	no change	-1.62	-0.08	inactive
